Test results from article PMC519002.
These are yes or no findings as the source states them, for the method shown. Binding seen in cells or lysates may run through a third protein. Some binding calls cover weakened binding; strength is not graded here. Where a sequence is shown, tags or fusion partners need not be part of it.

Target: T1, myc-tagged Ino2 (S. cerevisiae (endogenous locus, strains derived from CRY1)) (UniProt P26798)
T1 sequence: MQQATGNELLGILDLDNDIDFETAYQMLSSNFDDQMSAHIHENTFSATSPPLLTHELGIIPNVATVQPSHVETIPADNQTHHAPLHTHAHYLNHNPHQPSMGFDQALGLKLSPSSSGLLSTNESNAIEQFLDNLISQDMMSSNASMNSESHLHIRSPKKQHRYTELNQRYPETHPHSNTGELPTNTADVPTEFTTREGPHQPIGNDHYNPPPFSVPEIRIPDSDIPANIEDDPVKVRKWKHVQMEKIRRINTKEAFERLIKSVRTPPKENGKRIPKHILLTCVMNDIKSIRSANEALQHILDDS
Experiment: co-IP; whole cell extract in IP buffer (50 mM Hepes-KOH pH 6.8, 150 mM potassium acetate, 2 mM magnesium acetate), 1% Triton X-100; anti-myc agarose 4 h at 4 °C, five washes; blot with anti-HA; cells grown with or without 1 μg/ml tunicamycin for 4.5 h

binding: binds
B1: HA-tagged Ino4 (protein, UniProt P13902 1-151)
chain: MTNDIKEIQTIQPGLSEIKEIKGELANVKKRKRRSKKINKLTDGQIRINHVSSEKKRRELERAIFDELVAVVPDLQPQESRSELIIYLKSLSYLSWLYERNEKLRKQIIAKHEAKTGSSSSSDPVQEQNGNIRDLVPKELIWELGDGQSGQ
